According to publication PMC9613683:
Results are given in words; binding and its absence hold for the method and conditions named. Binding seen in cells or lysates may run through a third protein. Some entries that bind do so weakly or less than the wild type.

The chains behind the UniProt entries cited, without tags or fusion partners. Where a name states a change or a piece, a line headed by the entry shows the natural chain unless it says otherwise. A line that says so, or that is headed by a name, gives the form on record, which may keep a tag or linker. Residues count along the entry.
Coxsackievirus and adenovirus receptor (CAR) tagged with GFP (P78310, residues 20-365): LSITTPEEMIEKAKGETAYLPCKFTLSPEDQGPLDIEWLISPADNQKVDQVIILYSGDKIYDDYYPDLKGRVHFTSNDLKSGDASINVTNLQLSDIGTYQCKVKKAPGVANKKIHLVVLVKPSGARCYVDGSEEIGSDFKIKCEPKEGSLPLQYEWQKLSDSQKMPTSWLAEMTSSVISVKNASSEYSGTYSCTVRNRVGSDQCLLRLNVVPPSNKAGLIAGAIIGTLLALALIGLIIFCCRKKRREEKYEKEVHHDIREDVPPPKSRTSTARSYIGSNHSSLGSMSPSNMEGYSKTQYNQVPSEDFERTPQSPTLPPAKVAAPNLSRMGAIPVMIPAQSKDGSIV
T290/S293 phospho-dead mutant of CAR tagged with GFP (P78310, form named): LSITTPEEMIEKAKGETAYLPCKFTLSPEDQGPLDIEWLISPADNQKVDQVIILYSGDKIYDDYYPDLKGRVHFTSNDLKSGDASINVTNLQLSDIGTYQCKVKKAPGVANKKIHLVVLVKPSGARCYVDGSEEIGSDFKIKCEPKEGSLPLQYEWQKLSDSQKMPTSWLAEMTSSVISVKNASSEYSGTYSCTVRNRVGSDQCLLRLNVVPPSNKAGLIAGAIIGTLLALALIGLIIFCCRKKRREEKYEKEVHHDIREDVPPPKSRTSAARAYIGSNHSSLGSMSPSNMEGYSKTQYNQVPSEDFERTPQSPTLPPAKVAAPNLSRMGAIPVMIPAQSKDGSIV
UniProt Q03135: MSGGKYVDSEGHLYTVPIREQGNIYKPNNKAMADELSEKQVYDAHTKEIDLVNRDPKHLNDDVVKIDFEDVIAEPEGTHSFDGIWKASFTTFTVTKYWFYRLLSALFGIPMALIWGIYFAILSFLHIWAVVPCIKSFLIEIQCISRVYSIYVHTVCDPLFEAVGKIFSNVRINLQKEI

How the values were obtained:
[1] = target: T290/S293 phospho-dead mutant of CAR tagged with GFP (UniProt P78310); experiment: co-IP; GFP-trap immunoprecipitation from lysates of 16HBE cells expressing GFP-tagged CAR, 2 h at 4 °C, 50 mM Tris pH 7.4, 150 mM NaCl, 1% NP40, 1% Triton X-100; blot for caveolin-1
[2] = target: Coxsackievirus and adenovirus receptor (CAR) tagged with GFP (UniProt P78310); experiment: as above
[3] = target: T290/S293 phospho-dead mutant of CAR tagged with GFP (UniProt P78310); experiment: co-IP; GFP-trap immunoprecipitation as above from 16HBE cells treated with HDM for 1 h before lysis; blot for caveolin-1

Measured: binding

caveolin-1 (from UniProt Q03135 1-178)
binds: [1] | [2] | [3]
